Laboratory results as given in the supplement of paper PMC12593923.

Tests used:
Experiment in all cases: drug sensitivity score (DSS2, cytotoxicity, CellTox Green); higher = more cytotoxic / more sensitive; extreme values may be limits of the assay
Conditions in all cases: 72 h; doses 0.5, 1, 5 µM
Kuramochi = system: Kuramochi
OVCAR4 = system: OVCAR4
OVCAR3 = system: OVCAR3

Structure (SMILES)	drug sensitivity score (Kuramochi) [DSS]	drug sensitivity score (OVCAR4) [DSS]	drug sensitivity score (OVCAR3) [DSS]
C[C@@H]1CCN(C(=O)CC#N)C[C@@H]1N(C)c1ncnc2[nH]ccc12 [Tofacitinib (citrate)]	0	0	0
CN(CCOc1ccc(CC2SC(=O)NC2=O)cc1)c1ccccn1 (stereo unspecified) [Rosiglitazone (maleate)]	0	0	0
O=P(O)(O)C(O)(Cn1ccnc1)P(=O)(O)O [Zoledronic acid (monohydrate)]	0	0	0
Nc1nc(F)nc2c1ncn2[C@@H]1O[C@H](COP(=O)(O)O)[C@@H](O)[C@@H]1O [Fludarabine (phosphate)]	0	0	0
CN(C)C(=N)NC(=N)N [Metformin (hydrochloride)]	0	0	0
C=Cc1c(C)c2cc3nc(cc4[nH]c(cc5nc(cc1[nH]2)C(C)=C5CCC(=O)O)c(CCC(=O)OC)c4C)[C@@]1(C)C3=CC=C(C(=O)OC)[C@H]1C(=O)OC.C=Cc1c(C)c2cc3nc(cc4[nH]c(cc5nc(cc1[nH]2)C(C)=C5CCC(=O)OC)c(CCC(=O)O)c4C)[C@@]1(C)C3=CC=C(C(=O)OC)[C@H]1C(=O)OC [Verteporfin]	0	0	0
CN1CC[C@@H](NC(=O)Nc2ccc(C#N)cc2)C[C@@H]1c1nc2ccccc2[nH]1 [Glasdegib]	0	0	0
CC(=O)[C@H]1CC[C@H]2[C@@H]3CC=C4C[C@@H](OS(=O)(=O)O)CC[C@]4(C)[C@H]3CC[C@]12C [Pregnenolone monosulfate]	0	0	0
CN(C)c1cc(NC(=O)CNC(C)(C)C)c(O)c2c1C[C@H]1C[C@H]3[C@H](N(C)C)C(=O)C(C(N)=O)=C(O)[C@@]3(O)C(=O)C1=C2O [Tigecycline]	0	0	0
CCCC(CCC)C(=O)O [Valproic acid (sodium salt)]	0	0	0
COc1ccc(-c2ccc3cc(C(=O)O)ccc3c2)cc1C12CC3CC(CC(C3)C1)C2 [Adapalene]	0	0	0
CNC(=O)c1cc(Oc2ccc(NC(=O)Nc3ccc(Cl)c(C(F)(F)F)c3)cc2)ccn1 [Sorafenib]	0	0	0
CC(C)(C)C[C@@H]1N[C@@H](C(=O)N[C@H]2CC[C@H](O)CC2)[C@H](c2cccc(Cl)c2F)[C@]12C(=O)Nc1cc(Cl)ccc12	0	0	0
CN1CCN(C(=O)/C=C/c2ccc([N+](=O)[O-])o2)CC1	0	0	0
CC(=O)N[C@@H](CS)C(=O)O [Acetylcysteine]	0	0	0
CC(C)(C#N)c1cc(Cn2cncn2)cc(C(C)(C)C#N)c1 [Anastrozole]	0	0	0
Cn1cnc2c(F)c(Nc3ccc(Br)cc3Cl)c(C(=O)NOCCO)cc21 [Selumetinib (sulfate)]	0	0	0
C[C@]12CC[C@@H]3c4ccc(OC(=O)N(CCCl)CCCl)cc4CC[C@H]3[C@@H]1CC[C@@H]2OP(=O)(O)O [Estramustine (phosphate sodium)]	0	0	0
NCCCNCCS [Amifostine thiol (dihydrochloride)]	0	0	0
CN(Cc1cnc2nc(N)nc(N)c2n1)c1ccc(C(=O)N[C@@H](CCC(=O)O)C(=O)O)cc1 [Methotrexate (disodium)]	0	0	0
CS(=O)(=O)CCNCc1ccc(-c2ccc3ncnc(Nc4ccc(OCc5cccc(F)c5)c(Cl)c4)c3c2)o1 [Lapatinib (ditosylate)]	0	0	2.7
COc1cc2c3cc1Oc1c(OC)c(OC)cc4c1[C@@H](Cc1ccc(O)c(c1)Oc1ccc(cc1)C[C@@H]3N(C)CC2)N(C)CC4 [Berbamine (dihydrochloride)]	0	0	0
COc1cc2c3cc1Oc1c(OC)c(OC)cc4c1[C@@H](Cc1ccc(O)c(c1)Oc1ccc(cc1)C[C@@H]3N(C)CC2)N(C)CC4 [Berbamine]	0	0	0
CC(=O)Oc1cc(C)c(OC(C)=O)c2ccccc12 [Vitamin K4]	0.1	0	0

4 entries from above, as a markdown table.

| Structure (SMILES) | drug sensitivity score (Kuramochi) [DSS] | drug sensitivity score (OVCAR4) [DSS] | drug sensitivity score (OVCAR3) [DSS] |
| --- | --- | --- | --- |
| CC(C)(C)C[C@@H]1N[C@@H](C(=O)N[C@H]2CC[C@H](O)CC2)[C@H](c2cccc(Cl)c2F)[C@]12C(=O)Nc1cc(Cl)ccc12 | 0 | 0 | 0 |
| CC(=O)N[C@@H](CS)C(=O)O [Acetylcysteine] | 0 | 0 | 0 |
| C[C@]12CC[C@@H]3c4ccc(OC(=O)N(CCCl)CCCl)cc4CC[C@H]3[C@@H]1CC[C@@H]2OP(=O)(O)O [Estramustine (phosphate sodium)] | 0 | 0 | 0 |
| NCCCNCCS [Amifostine thiol (dihydrochloride)] | 0 | 0 | 0 |

The results go on:

Structure (SMILES)	drug sensitivity score (Kuramochi) [DSS]	drug sensitivity score (OVCAR4) [DSS]	drug sensitivity score (OVCAR3) [DSS]
CCCCCCCC/C=C/CCCCCCCC(=O)OC[C@H]1O[C@@H](n2ccc(N)nc2=O)C(F)(F)[C@@H]1O [Gemcitabine (elaidate)]	0	0	0
CCCOc1ccc(C(=O)OCCN(CC)CC)cc1N [Proparacaine (Hydrochloride)]	0	0	0
Cc1ccc(Nc2nccc(N(C)c3ccc4c(C)n(C)nc4c3)n2)cc1S(N)(=O)=O [Pazopanib (Hydrochloride)]	0	0	0
Cc1ncc(CO)c(CO)c1O [Metadoxine]	0	0	0
CCCCN(CCCC)CC(O)c1cc(Cl)cc2c1-c1ccc(Cl)cc1/C2=C/c1ccc(Cl)cc1 (stereo unspecified) [Lumefantrine]	0	0	0
Nc1nc(NC2CC2)c2ncn([C@H]3C=C[C@@H](CO)C3)c2n1 [Abacavir (sulfate)]	0	0	0.1
CN(C)C(=N)NC(=N)N [Metformin]	0	0	0
CCCS(=O)(=O)Nc1ccc(F)c(C(=O)c2c[nH]c3ncc(-c4ccc(Cl)cc4)cc23)c1F [Vemurafenib]	0	0	0
Cn1cnc2c(F)c(Nc3ccc(Br)cc3F)c(C(=O)NOCCO)cc21 [Binimetinib]	0	0	0
CS(=O)(=O)OCCCCOS(C)(=O)=O [Busulfan]	0.6	0	0.4
CS(=O)(=O)CCNCc1ccc(-c2ccc3ncnc(Nc4ccc(OCc5cccc(F)c5)c(Cl)c4)c3c2)o1 [Lapatinib]	0	0	0
CC(C)(C)c1cc(NC(=O)Nc2ccc(-c3cn4c(n3)sc3cc(OCCN5CCOCC5)ccc34)cc2)no1 [Quizartinib]	0	0	0
O=C1C2CCN(CC2)C1(CO)CO [PRIMA-1]	0	0	0
O=C(O)c1cc(O)c(O)c(O)c1 [Gallic acid (hydrate)]	0	0	0
CNS(=O)(=O)C[C@H]1CC[C@H](N(C)c2[nH]cnc3nccc2-3)CC1 [Oclacitinib (maleate)]	0	0	0
N=C1CCCN1Cc1[nH]c(=O)[nH]c(=O)c1Cl.O=c1[nH]c(=O)n([C@H]2C[C@H](O)[C@@H](CO)O2)cc1C(F)(F)F.O=c1[nH]c(=O)n([C@H]2C[C@H](O)[C@@H](CO)O2)cc1C(F)(F)F [Trifluridine/tipiracil hydrochloride mixture]	0	0	0
COc1cc2ncnc(Nc3ccc(F)c(Cl)c3)c2cc1NC(=O)/C=C/CN1CCCCC1 [Dacomitinib]	0	0	0.1
CCC[C@H](N[C@@H](C)C(=O)N1[C@H](C(=O)O)C[C@@H]2CCCC[C@@H]21)C(=O)OCC [Perindopril (erbumine)]	0	0	0
CC(C)c1c(C(=O)Nc2ccccc2)c(-c2ccccc2)c(-c2ccc(F)cc2)n1CC[C@@H](O)C[C@@H](O)CC(=O)O [Atorvastatin]	0	0	0
Nc1cccc2c1CN(C1CCC(=O)NC1=O)C2=O (stereo unspecified) [Lenalidomide]	0	0	0
CC1=C(/C=C/C(C)=C\C=C\C(C)=C\C(=O)O)C(C)(C)CCC1 [9-cis-Retinoic acid]	0	0	0
COc1ncc(-c2nc3c(n2C(C)C)[C@H](c2ccc(Cl)cc2)N(c2cc(Cl)cn(C)c2=O)C3=O)c(OC)n1 [Siremadlin]	0	0	0
NC(=O)c1cccc2cn(-c3ccc([C@@H]4CCCNC4)cc3)nc12 [Niraparib]	0	0	0

Counter-ions that a name gives are not always drawn. Several reference drugs read as weak here; read low effects with care.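 All three lines are high-grade serous ovarian cancer cells differing in chemosensitivity, with OVCAR3 described as the chemosensitive one. Toxicity was scaled between DMSO vehicle wells and fully lysed wells, the score derives from a fitted multi-dose response curve, and the authors counted a score above 5 as drug sensitivity.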
